Assay results published in the supplement of paper PMC10849652.
This is one part of the list.

The chains behind the UniProt entries cited, without tags or fusion partners. Where a name states a change or a piece, a line headed by the entry shows the natural chain unless it says otherwise.
UniProt Q6DCA0: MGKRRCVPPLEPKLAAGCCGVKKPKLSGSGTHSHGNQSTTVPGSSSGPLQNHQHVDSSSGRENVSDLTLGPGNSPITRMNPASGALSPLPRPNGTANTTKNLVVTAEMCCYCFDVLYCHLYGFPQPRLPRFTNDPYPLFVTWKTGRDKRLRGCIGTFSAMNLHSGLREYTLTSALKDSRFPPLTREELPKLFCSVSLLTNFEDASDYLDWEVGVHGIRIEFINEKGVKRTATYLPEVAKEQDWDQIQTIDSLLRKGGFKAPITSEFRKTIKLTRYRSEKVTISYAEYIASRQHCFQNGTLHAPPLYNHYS
UniProt Q9NYG5, whole entry, looked up: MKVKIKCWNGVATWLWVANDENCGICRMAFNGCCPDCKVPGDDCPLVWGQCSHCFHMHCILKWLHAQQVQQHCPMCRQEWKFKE
UniProt A1A5B4: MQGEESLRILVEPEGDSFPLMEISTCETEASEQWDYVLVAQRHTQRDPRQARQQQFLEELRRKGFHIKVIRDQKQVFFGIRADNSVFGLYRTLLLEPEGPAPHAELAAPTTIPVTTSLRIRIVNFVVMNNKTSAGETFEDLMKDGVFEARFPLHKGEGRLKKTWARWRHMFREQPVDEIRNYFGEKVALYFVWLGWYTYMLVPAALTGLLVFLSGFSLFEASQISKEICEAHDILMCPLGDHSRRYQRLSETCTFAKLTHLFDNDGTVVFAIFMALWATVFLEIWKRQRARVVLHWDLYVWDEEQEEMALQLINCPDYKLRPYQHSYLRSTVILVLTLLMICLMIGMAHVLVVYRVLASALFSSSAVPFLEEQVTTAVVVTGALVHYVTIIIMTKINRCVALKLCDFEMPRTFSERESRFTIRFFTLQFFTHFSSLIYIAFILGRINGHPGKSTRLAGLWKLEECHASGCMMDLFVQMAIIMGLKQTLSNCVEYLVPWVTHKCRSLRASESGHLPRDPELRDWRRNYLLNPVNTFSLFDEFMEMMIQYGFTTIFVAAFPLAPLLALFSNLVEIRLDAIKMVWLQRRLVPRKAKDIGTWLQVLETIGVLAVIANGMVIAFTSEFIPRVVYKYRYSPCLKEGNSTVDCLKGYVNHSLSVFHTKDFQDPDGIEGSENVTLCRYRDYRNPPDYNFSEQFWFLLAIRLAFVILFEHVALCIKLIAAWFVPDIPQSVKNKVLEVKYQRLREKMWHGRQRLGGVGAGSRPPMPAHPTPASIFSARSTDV
UniProt Q86W74: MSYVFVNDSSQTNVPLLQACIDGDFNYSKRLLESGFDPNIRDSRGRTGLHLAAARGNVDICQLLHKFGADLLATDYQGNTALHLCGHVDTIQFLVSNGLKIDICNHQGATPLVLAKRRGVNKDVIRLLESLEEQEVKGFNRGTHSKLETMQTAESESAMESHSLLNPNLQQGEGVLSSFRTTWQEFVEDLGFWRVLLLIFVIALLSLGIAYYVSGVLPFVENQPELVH
UniProt Q53RE8: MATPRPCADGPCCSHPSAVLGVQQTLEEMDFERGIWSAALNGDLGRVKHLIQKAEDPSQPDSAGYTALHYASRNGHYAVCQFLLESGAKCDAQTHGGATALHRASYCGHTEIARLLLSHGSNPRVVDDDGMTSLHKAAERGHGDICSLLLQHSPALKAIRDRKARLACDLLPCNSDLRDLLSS
UniProt Q6UB98: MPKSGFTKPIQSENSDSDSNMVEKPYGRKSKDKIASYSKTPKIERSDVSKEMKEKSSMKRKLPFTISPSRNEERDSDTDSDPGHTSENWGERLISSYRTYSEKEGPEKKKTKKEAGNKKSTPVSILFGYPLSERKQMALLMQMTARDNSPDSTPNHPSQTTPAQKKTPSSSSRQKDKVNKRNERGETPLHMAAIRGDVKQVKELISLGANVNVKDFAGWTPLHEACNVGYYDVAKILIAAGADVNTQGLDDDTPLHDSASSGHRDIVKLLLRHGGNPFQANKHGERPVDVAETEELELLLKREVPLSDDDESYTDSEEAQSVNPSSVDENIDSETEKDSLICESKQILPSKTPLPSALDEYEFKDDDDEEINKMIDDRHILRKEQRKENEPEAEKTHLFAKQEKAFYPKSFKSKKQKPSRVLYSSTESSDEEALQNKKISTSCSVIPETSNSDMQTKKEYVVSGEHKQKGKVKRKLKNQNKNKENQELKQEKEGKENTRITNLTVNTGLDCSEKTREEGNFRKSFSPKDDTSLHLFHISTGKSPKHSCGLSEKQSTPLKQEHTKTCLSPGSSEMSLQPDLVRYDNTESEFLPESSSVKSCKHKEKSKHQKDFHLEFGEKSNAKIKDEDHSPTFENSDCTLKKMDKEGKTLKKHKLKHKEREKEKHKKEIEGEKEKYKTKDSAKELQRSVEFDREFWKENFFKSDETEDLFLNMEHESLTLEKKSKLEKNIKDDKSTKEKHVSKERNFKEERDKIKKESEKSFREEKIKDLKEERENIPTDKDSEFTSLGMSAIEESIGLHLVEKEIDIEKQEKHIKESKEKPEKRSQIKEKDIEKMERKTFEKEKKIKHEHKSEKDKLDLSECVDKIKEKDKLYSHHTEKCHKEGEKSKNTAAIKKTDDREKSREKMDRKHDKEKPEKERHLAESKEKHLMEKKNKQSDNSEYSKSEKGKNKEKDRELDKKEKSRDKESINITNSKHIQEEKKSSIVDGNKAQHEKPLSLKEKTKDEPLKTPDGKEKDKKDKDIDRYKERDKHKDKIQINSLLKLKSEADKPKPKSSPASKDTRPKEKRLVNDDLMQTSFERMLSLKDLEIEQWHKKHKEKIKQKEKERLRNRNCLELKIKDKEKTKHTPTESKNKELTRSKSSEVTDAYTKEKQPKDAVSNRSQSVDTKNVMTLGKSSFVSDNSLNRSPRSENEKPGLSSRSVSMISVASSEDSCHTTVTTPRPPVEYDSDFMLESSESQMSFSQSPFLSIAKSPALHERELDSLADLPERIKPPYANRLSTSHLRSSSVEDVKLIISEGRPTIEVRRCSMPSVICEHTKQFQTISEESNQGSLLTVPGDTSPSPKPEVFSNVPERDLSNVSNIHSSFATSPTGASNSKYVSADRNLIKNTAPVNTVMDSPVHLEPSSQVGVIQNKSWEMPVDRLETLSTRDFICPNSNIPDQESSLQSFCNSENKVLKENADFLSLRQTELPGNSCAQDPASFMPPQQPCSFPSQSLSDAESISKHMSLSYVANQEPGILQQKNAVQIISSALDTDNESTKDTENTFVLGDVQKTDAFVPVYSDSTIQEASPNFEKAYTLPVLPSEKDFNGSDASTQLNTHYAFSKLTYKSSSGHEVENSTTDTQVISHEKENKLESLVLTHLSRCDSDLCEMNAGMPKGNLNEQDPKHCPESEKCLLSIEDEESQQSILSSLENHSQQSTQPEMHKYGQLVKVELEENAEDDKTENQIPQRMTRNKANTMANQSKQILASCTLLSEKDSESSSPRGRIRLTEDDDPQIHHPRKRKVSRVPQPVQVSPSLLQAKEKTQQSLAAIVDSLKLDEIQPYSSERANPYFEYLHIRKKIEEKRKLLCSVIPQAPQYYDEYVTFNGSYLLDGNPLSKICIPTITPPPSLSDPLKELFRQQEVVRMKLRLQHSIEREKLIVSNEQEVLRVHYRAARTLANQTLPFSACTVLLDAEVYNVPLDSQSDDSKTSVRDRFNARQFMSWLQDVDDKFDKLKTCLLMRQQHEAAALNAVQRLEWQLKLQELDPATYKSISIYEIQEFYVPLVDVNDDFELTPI
UniProt Q9BS18, whole entry, looked up: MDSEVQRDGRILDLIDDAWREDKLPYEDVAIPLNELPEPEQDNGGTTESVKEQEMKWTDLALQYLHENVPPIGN
UniProt Q8N6S4: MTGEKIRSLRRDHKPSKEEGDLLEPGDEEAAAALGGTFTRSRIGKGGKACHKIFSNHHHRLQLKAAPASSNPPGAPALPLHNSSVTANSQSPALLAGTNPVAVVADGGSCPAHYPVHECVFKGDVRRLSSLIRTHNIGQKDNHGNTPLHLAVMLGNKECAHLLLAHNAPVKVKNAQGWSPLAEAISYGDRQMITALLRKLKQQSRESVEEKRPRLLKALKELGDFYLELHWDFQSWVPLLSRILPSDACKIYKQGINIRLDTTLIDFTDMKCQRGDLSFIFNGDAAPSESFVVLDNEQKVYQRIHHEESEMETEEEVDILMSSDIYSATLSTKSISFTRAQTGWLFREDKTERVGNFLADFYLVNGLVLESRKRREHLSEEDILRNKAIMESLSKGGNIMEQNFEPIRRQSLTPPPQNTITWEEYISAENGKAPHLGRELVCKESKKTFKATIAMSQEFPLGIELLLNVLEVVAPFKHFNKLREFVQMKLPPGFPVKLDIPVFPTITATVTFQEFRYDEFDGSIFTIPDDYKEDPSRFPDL
UniProt P22557: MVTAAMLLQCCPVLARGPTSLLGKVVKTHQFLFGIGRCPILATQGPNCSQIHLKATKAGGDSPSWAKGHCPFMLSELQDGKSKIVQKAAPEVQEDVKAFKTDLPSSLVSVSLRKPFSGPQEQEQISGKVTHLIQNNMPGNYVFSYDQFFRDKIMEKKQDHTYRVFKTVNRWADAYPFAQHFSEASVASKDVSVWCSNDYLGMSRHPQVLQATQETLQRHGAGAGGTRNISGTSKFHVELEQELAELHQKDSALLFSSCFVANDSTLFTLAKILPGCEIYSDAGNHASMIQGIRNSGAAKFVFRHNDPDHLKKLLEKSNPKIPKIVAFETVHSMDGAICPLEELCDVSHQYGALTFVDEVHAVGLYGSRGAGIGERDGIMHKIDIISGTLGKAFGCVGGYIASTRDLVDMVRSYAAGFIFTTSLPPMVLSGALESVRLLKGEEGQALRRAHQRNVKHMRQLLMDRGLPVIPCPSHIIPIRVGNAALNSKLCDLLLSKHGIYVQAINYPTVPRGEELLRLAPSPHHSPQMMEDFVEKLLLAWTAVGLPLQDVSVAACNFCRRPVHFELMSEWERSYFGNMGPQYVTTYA
UniProt P51648: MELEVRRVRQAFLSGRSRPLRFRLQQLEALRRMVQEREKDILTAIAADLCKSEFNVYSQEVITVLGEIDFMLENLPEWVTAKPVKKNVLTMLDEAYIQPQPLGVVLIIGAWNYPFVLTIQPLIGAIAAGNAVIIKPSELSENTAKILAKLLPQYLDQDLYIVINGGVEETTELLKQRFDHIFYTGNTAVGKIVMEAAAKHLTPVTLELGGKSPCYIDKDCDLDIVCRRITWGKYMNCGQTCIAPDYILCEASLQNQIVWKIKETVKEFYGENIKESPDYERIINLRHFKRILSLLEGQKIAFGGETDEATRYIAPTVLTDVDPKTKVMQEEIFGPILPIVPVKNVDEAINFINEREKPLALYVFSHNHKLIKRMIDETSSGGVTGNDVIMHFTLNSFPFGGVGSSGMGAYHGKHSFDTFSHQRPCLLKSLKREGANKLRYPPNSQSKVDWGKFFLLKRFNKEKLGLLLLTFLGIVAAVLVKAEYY
UniProt Q2TAA5: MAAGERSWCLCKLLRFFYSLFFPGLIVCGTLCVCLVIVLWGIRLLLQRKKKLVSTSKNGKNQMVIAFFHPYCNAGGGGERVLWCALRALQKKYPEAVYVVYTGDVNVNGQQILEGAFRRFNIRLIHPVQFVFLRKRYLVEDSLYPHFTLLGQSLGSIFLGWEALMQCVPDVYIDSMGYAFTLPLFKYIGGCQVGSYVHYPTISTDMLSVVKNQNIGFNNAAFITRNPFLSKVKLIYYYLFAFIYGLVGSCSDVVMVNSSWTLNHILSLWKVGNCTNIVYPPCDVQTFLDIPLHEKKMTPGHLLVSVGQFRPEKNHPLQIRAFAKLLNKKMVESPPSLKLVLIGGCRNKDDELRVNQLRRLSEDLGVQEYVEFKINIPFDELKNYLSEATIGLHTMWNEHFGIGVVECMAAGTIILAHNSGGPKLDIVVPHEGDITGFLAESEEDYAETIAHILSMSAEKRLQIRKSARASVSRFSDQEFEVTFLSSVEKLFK
UniProt Q86SJ2: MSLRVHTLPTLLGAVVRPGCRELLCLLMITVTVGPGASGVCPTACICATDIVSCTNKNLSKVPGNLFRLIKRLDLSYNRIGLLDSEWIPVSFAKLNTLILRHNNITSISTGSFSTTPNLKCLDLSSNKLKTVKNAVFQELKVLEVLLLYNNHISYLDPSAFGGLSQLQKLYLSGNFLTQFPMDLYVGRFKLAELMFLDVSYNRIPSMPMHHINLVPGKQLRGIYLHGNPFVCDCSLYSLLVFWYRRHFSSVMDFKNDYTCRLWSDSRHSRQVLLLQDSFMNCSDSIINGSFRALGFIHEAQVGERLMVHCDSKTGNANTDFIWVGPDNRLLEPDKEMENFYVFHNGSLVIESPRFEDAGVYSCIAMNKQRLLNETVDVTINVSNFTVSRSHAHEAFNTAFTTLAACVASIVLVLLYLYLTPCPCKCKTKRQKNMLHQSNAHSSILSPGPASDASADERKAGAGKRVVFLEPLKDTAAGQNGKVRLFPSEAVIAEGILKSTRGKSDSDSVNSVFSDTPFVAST

Key:
Assay in all cases: log2 fold change, soluble protein after heating vs DMSO (PISA); higher = thermal stabilisation; K562 lysate, 10 uM; active = over 0.2 and 3.5 SD of the protein, either way, in both replicates (recomputed)
crizotinib = compound: C[C@@H](Oc1cc(-c2cnn(C3CCNCC3)c2)cnc1N)c1c(Cl)ccc(F)c1Cl [crizotinib]
In short: (§1)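 Values give the log-two fold change in thermal stability against solvent controls, from duplicates. Crude K562 extract at 1 mg/mL protein, made by dounce homogenisation in PBS pH 7.4 with 1 mM MgCl2, was treated with 10 μM compound for 30 min. After 3 min heating across 48°C-58°C, aliquots were pooled, adjusted to 0.5% NP-40 at 4°C and centrifuged at 21,000xg for 90 min. The supernatant was measured by TMTpro 16plex LC-MS/MS with channel sums equalised.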

duvelisib = compound: C[C@H](Nc1ncnc2nc[nH]c12)c1cc2cccc(Cl)c2c(=O)n1-c1ccccc1 [duvelisib]
In short: as §1

tozasertib = compound: Cc1cc(Nc2cc(N3CCN(C)CC3)nc(Sc3ccc(NC(=O)C4CC4)cc3)n2)n[nH]1 [tozasertib]
In short: as §1

doramapimod = compound: Cc1ccc(-n2nc(C(C)(C)C)cc2NC(=O)Nc2ccc(OCCN3CCOCC3)c3ccccc23)cc1 [doramapimod]
In short: as §1

nilotinib = compound: Cc1cn(-c2cc(NC(=O)c3ccc(C)c(Nc4nccc(-c5cccnc5)n4)c3)cc(C(F)(F)F)c2)cn1 [nilotinib]
In short: as §1

[1] = compound: Cc1nc(Nc2n[nH]c3c2CN(C(=O)N[C@H](CN(C)C)c2ccccc2)C3(C)C)c2sccc2n1
In short: as §1

dasatinib = compound: Cc1nc(Nc2ncc(C(=O)Nc3c(C)cccc3Cl)s2)cc(N2CCN(CCO)CC2)n1 [dasatinib]
In short: as §1

[2] = compound: Cc1ncc(-c2ccnc(Nc3ccc(S(C)(=O)=O)cc3)n2)n1C(C)C
In short: as §1

[3] = compound: Cn1cc(-c2ccc3c(c2)CCN3C(=O)Cc2cccc(C(F)(F)F)c2)c2c(N)ncnc21
In short: as §1

quisinostat = compound: Cn1cc(CNCC2CCN(c3ncc(C(=O)NO)cn3)CC2)c2ccccc21 [quisinostat]
In short: as §1

tipifarnib = compound: Cn1cncc1[C@@](N)(c1ccc(Cl)cc1)c1ccc2c(c1)c(-c1cccc(Cl)c1)cc(=O)n2C [tipifarnib]
In short: as §1

[4] = compound: NC(=O)Nc1cc(-c2cccc(F)c2)sc1C(=O)N[C@H]1CCCNC1
In short: as §1

[5] = compound: C[C@H](C1=CC=C(C=C1)C(=O)NC2=C3C=CNC3=NC=C2)N
In short: as §1

gandotinib = compound: Cc1cc(Nc2cc(CN3CCOCC3)c3nc(C)c(Cc4ccc(Cl)cc4F)n3n2)n[nH]1 [gandotinib]
In short: as §1

[6] = compound: Cc1cccc(CC(=O)N2CCc3c2ccc(-c2cn(C)c4ncnc(N)c24)c3F)n1
In short: as §1

[7] = compound: NC1(c2ccc(-c3nc4ccn5c(=O)[nH]nc5c4cc3-c3ccccc3)cc2)CCC1
In short: as §1

pictilisib = compound: CS(=O)(=O)N1CCN(Cc2cc3nc(-c4cccc5[nH]ncc45)nc(N4CCOCC4)c3s2)CC1 [pictilisib]
In short: as §1

bafetinib = compound: Cc1ccc(NC(=O)c2ccc(CN3CC[C@H](N(C)C)C3)c(C(F)(F)F)c2)cc1Nc1nccc(-c2cncnc2)n1 [bafetinib]
In short: as §1

Target | log2 fold change (crizotinib) | log2 fold change (duvelisib) | log2 fold change (tozasertib) | log2 fold change (doramapimod) | log2 fold change (nilotinib) | log2 fold change [1] | log2 fold change (dasatinib) | log2 fold change [2] | log2 fold change [3] | log2 fold change (quisinostat) | log2 fold change (tipifarnib) | log2 fold change [4] | log2 fold change [5] | log2 fold change (gandotinib) | log2 fold change [6] | log2 fold change [7] | log2 fold change (pictilisib) | log2 fold change (bafetinib)
AMOT (UniProt Q4VCS5) | inactive: -0.025 | inactive: -0.047 | inactive: -0.029 | inactive: 0.022 | inactive: 0.056 | inactive: -0.027 | inactive: -0.06 | inactive: 0.045 | inactive: 0.176 | inactive: -0.004 | inactive: 0 | inactive: -0.015 |  |  |  |  |  | 
ALDH18A1 isoform 2 (UniProt P54886) | inactive: 0.127 | inactive: 0.088 |  | inactive: -0.134 |  |  | inactive: 0.089 |  | inactive: 0.181 | inactive: 0.397 |  | inactive: -0.093 |  |  |  |  |  | 
AMMECR1L (UniProt Q6DCA0) | inactive: 0.047 | inactive: 0.043 | inactive: 0.079 | inactive: 0.099 |  |  | inactive: -0.011 |  | inactive: 0.024 | inactive: -0.151 |  | inactive: 0.019 | inactive: -0.087 | inactive: 0.124 | inactive: 0.043 | inactive: 0.124 |  | 
ANAPC15 isoform 2 (UniProt P60006) | inactive: 0.039 | inactive: -0.056 | inactive: -0.194 | inactive: -0.01 | inactive: 0.057 | inactive: -0.078 | inactive: 0.08 | inactive: 0.048 | inactive: -0.026 | inactive: -0.213 | inactive: -0.101 | inactive: 0.074 | inactive: 0.002 | inactive: 0.074 | inactive: 0 | inactive: 0.019 |  | 
ANGEL1 (UniProt Q9UNK9) | inactive: -0.01 |  |  | inactive: -0.113 | inactive: 0.097 | inactive: 0.051 |  | inactive: 0.027 |  | inactive: -0.12 | inactive: 0.036 | inactive: -0.117 | inactive: 0.053 | inactive: 0.075 | inactive: -0.159 |  |  | 
ALPK1 (UniProt Q96QP1) |  |  |  |  |  |  |  |  |  |  |  |  |  |  |  | inactive: 0.046 |  | 
ANKS6 isoform 4 (UniProt Q68DC2) | inactive: 0.055 | inactive: 0.065 | inactive: 0.016 | inactive: 0.002 | inactive: -0.202 | inactive: -0.057 | inactive: 0.025 | inactive: 0.083 | inactive: -0.006 | inactive: 0.015 | inactive: -0.161 | inactive: -0.063 |  |  |  | inactive: -0.165 |  | 
ALOX12B (UniProt O75342) | inactive: 0.148 |  |  | inactive: -0.178 | inactive: 0.088 | inactive: -0.186 |  | inactive: -0.136 |  | inactive: 0.158 | inactive: -0.018 | inactive: 0.047 | inactive: -0.102 | inactive: 0.118 | inactive: -0.092 | inactive: -0.071 | inactive: 0.017 | inactive: -0.093
ANAPC11 (UniProt Q9NYG5) | inactive: -0.089 | inactive: -0.186 |  | inactive: 0.003 |  |  | inactive: -0.142 |  | inactive: 0.053 | inactive: 0.095 |  | inactive: -0.057 | inactive: 0.112 | inactive: 0.039 | inactive: -0.182 |  | inactive: -0.162 | inactive: 0.099
ANO9 (UniProt A1A5B4) |  | inactive: -0.001 |  |  |  |  | inactive: -0.166 |  | inactive: 0.027 |  |  |  |  |  |  |  |  | 
ANKRD46 (UniProt Q86W74) | inactive: -0.135 | inactive: 0.04 |  | inactive: 0.175 |  |  | inactive: 0.067 |  | inactive: 0.075 | inactive: 0.034 |  | inactive: -0.09 | inactive: -0.096 | inactive: 0.011 | inactive: 0.055 | inactive: -0.013 |  | 
ANP32E isoform 3 (UniProt Q9BTT0) |  |  | inactive: 0.165 |  |  |  |  |  |  |  |  |  | active: -0.843 | inactive: 0.213 | inactive: 0.439 |  | inactive: -0.012 | inactive: -0.14
ANKRD39 (UniProt Q53RE8) | inactive: -0.091 | inactive: -0.123 |  | inactive: 0.333 | inactive: 0.03 | inactive: 0.035 | inactive: -0.151 | inactive: -0.066 | inactive: 0.081 | inactive: -0.015 | inactive: -0.002 | inactive: -0.005 | inactive: 0.131 | inactive: -0.085 | inactive: 0.027 |  |  | 
ANKRD12 (UniProt Q6UB98) |  |  | inactive: 0.052 |  |  |  |  |  |  |  |  |  |  |  |  |  |  | 
ANAPC13 (UniProt Q9BS18) |  |  | inactive: -0.005 |  |  |  |  |  |  |  |  |  |  |  |  |  |  | 
ANKRD13C (UniProt Q8N6S4) |  |  |  |  |  |  |  |  |  |  |  |  |  |  |  |  | inactive: -0.137 | inactive: -0.031
AMDHD2 (UniProt Q9Y303) | inactive: -0.056 |  |  | inactive: 0.057 |  |  |  |  |  | inactive: -0.001 |  | inactive: 0.048 | inactive: 0.052 | inactive: -0.015 | inactive: 0.065 |  |  | 
ALAS2 (UniProt P22557) | inactive: -0.025 |  |  | inactive: -0.038 |  |  |  |  |  | inactive: -0.014 |  | inactive: 0 |  |  |  |  |  | 
ALDH9A1 (UniProt P49189) | inactive: 0.105 | inactive: 0.023 |  | inactive: 0.01 |  |  | inactive: 0.008 |  | inactive: -0.097 | inactive: 0.013 |  | inactive: 0.043 |  |  |  |  | inactive: 0.013 | inactive: -0.081
ALDH3A2 isoform 2 (UniProt P51648) |  | inactive: -0.423 |  |  | inactive: -0.263 | inactive: -0.033 | inactive: 0.839 | inactive: 0.122 | inactive: -0.647 |  | inactive: 0.003 |  | inactive: -0.38 | inactive: 0.04 | inactive: 0.218 |  |  | 
AMFR (UniProt Q9UKV5) | inactive: -0.075 | inactive: -0.026 | inactive: -0.056 | inactive: 0.028 | inactive: -0.068 | inactive: -0.229 | inactive: -0.154 | inactive: 0.132 | inactive: 0.014 | inactive: -0.026 | inactive: -0.101 | inactive: 0.044 | inactive: 0.19 | inactive: -0.059 | inactive: 0.08 | inactive: -0.164 |  | 
ALOX5 (UniProt P09917) |  |  |  |  |  |  |  |  |  |  |  |  | inactive: -0.136 | inactive: 0.1 | inactive: 0.246 |  |  | 
ALKBH7 (UniProt Q9BT30) | inactive: -0.049 | inactive: 0.091 | inactive: -0.045 | inactive: -0.062 | inactive: -0.039 | inactive: -0.04 | inactive: -0.017 | inactive: -0.452 | inactive: -0.226 | inactive: 0.006 | inactive: 0.107 | inactive: 0.044 | inactive: 0.289 | inactive: 0.08 | inactive: 0.187 | inactive: -0.099 |  | 
ANKLE2 (UniProt Q86XL3) | inactive: 0.009 | inactive: 0.001 | inactive: -0.083 | inactive: 0.016 | inactive: -0.035 | inactive: 0.01 | inactive: -0.081 | inactive: 0.068 | inactive: -0.003 | inactive: -0.068 | inactive: 0.046 | inactive: 0.04 | inactive: 0.042 | inactive: -0.131 | inactive: -0.001 | inactive: 0.004 | inactive: -0.03 | inactive: -0.107
ALG11 (UniProt Q2TAA5) | inactive: 0.066 | inactive: 0.083 |  | inactive: 0.036 | inactive: -0.08 | inactive: 0.033 | inactive: 0.001 | inactive: -0.094 | inactive: -0.054 | inactive: 0.2 | inactive: -0.196 | inactive: -0.026 | inactive: 0.04 | inactive: 0.133 | inactive: -0.01 | inactive: 0.158 | inactive: 0.157 | inactive: -0.113
AMIGO2 (UniProt Q86SJ2) |  |  |  |  | inactive: 0.04 | inactive: -0.024 |  | inactive: 0.002 |  |  | inactive: -0.187 |  | inactive: 0.002 | inactive: 0.104 | inactive: 0.266 |  |  | 
AP1S2 (UniProt H7BZG6) |  |  |  |  |  |  |  |  |  |  |  |  |  |  |  | inactive: 0.185 |  | 

Exported with tabs: entries from further up.
Target	log2 fold change (crizotinib)	log2 fold change (duvelisib)	log2 fold change (tozasertib)	log2 fold change (doramapimod)	log2 fold change (nilotinib)	log2 fold change [1]	log2 fold change (dasatinib)	log2 fold change [2]	log2 fold change [3]	log2 fold change (quisinostat)	log2 fold change (tipifarnib)	log2 fold change [4]	log2 fold change [5]	log2 fold change (gandotinib)	log2 fold change [6]	log2 fold change [7]	log2 fold change (pictilisib)	log2 fold change (bafetinib)
ALDH3A2 isoform 2 (UniProt P51648)		inactive: -0.423			inactive: -0.263	inactive: -0.033	inactive: 0.839	inactive: 0.122	inactive: -0.647		inactive: 0.003		inactive: -0.38	inactive: 0.04	inactive: 0.218			
AMFR (UniProt Q9UKV5)	inactive: -0.075	inactive: -0.026	inactive: -0.056	inactive: 0.028	inactive: -0.068	inactive: -0.229	inactive: -0.154	inactive: 0.132	inactive: 0.014	inactive: -0.026	inactive: -0.101	inactive: 0.044	inactive: 0.19	inactive: -0.059	inactive: 0.08	inactive: -0.164		
